According to PubChem BioAssay AID1487 (National Center for Advancing Translational Sciences (NCATS), 2009):
The whole screen tested about 200,000 compounds, of which about 25 (0.01%) were called active. The inconclusive results got no clear call from the source; some entries with a clear call stand among them for comparison. Calls come from the whole dose curve; as a rule, active = well fitted inhibition curve with a large enough effect in the signal ratio, with a control signal flat (not every such curve was filed as active); inconclusive = small, poorly fitted or top-dose-only effect, or effect the other way, or a change in a side signal; inactive = flat fitted curve, though single readings scatter; the % refers to the signal ratio. Where the call is inconclusive, the potency comes from a doubtful curve fit.

assay: qHTS Assay for Modulators of Lamin A Splicing; conditions: HeLa LMNA splicing GFP/RFP minigene ratio, 48 h; ratio change, negative = inhibition: at 46.1 µM (top of the series) unless noted
How it was run: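 Read-out is the ratio of GFP to DsRed2 object intensity, acquired by 488 nm laser-scanning cytometry on HeLa lamin A-EGFP minigene reporter cells. Compound incubation 48 hrs at 37 °C in Opti-MEM with 2% FBS; DMSO 0.5% final.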
% is set by controls: 0 for no effect and ±100 for the full control effect; potency is the fitted concentration of half-maximal effect.

| SMILES | Potency | ratio change, negative = inhibition |
| --- | --- | --- |
| COCCN(C(=O)CSc1nnc2cc(C)c3ccccc3n12)c1c(N)n(Cc2ccccc2)c(=O)[nH]c1=O | inconclusive: 3.55 µM [fluorescent, full curve, poor fit] | – |
| CCn1ccc2cc(S(=O)(=O)N3CCC(C(=O)NCCOC)CC3)ccc21 | – | inactive |
| O=C1CSC(c2ccccc2Br)N1c1ccc(Cl)cn1 (configuration not stated) | – | inconclusive: 11.9% [at 46 µM] |
| Nc1ncnc2c1ncn2C1CCCC1 | – | inconclusive: 22.4% [at 46 µM] |
| c1ccc(Cc2nc(-c3ccccn3)no2)cc1 | – | inconclusive: 11.7% |
| Cc1ccccc1OCc1nnc(SCc2cc(=O)c3cc(F)ccc3[nH]2)n1C | – | inconclusive: 4.05% [at 46 µM] |
| O=C(CSc1ncnc2c1nnn2Cc1ccc(F)cc1)NC1CCCC1 | – | inconclusive: -17.2% [at 46 µM] |
| Cc1c(Nc2ncccc2C(=O)O)cccc1C(F)(F)F | – | inconclusive: -6.22% |
| O=[N+]([O-])c1ccc(O)c(NC(=S)Nc2ccccc2)c1 | – | inactive |
| COCCn1c(SCc2ccccc2F)nc2c([nH]c3ccccc32)c1=O | – | inconclusive: 30.2% [at 46 µM] |
| COC(=O)CCCC1=CC2=C(c3ccccc3)C(=O)C(C)(OC(=O)C3CCCC3)C(=O)C2=CN1CC1CC1 (configuration not stated) | – | inactive: -16.8% [at 9.22 µM] |
| COc1ccc(CNC(=O)C2CCN(S(=O)(=O)N3CCC(C)CC3)CC2)c(OC)c1 | – | inconclusive: -16% [at 46 µM] |
| O=C(CN1CCN(c2ccccn2)CC1)Nc1ccc(F)cc1 | – | inactive |
| CN1CC(=O)N(CC(=O)Nc2cc(Cl)cc(Cl)c2)C1=O | – | inconclusive: 21.6% [at 46 µM] |
| CC(C)(C)C(=O)Nc1ccccc1C(=O)Nc1cc(Cl)ccc1Cl | – | inconclusive: 9.58% [at 0.0737 µM] |
| O=[N+]([O-])c1cc(Cl)c(O)c2ncccc12 | – | inconclusive: -34.8% [at 46 µM] |
| COc1cccc(N2CCN(C(=O)c3[nH]c(C)c(C(C)=O)c3C)CC2)c1 | – | inconclusive: -25.4% |
| COc1ccc(C(=O)NC(=S)NNC(=O)c2cnccn2)cc1 | inconclusive: 5.62 µM [falling, single point] | – |
| CC(C)n1c(SCC(=O)c2ccc(F)cc2)nc2c(sc3ccccc32)c1=O | – | inconclusive: 22.3% [at 46 µM] |
| O=C(NC(=S)Nc1ccc(N2CCCC2)cc1)c1ccccc1[N+](=O)[O-] | – | inconclusive: 7.35% |
| CCOc1ccc(/C=N/NC(=O)Cc2csc(Nc3cccc(C(F)(F)F)c3)n2)cc1 | – | inconclusive: -32.2% |

| SMILES | Potency | ratio change, negative = inhibition |
| --- | --- | --- |
| Cc1cccc(OCc2nnc(SCC(=O)Nc3cccc(C(=O)N4CCOCC4)c3)n2C)c1 | – | inconclusive: 1.21% |
| O=C(NCC1CCCO1)/C(=C\c1ccc(Cl)cc1)NC(=O)c1ccccc1 (configuration not stated) | – | inconclusive: 12.6% |
| CCN(CC)C(=O)CSc1nnc(-c2ccccc2)n1-c1ccccc1 | – | inactive |
| CCOC(=O)N1CCN(C(=O)c2ccc3c(=O)n4c(nc3c2)CCCCC4)CC1 | – | inconclusive: -3.63% |
| CC1CC2(C)Oc3ccccc3CC2C(C)C1CNCCCN(C)C (configuration not stated) | inconclusive: 20 µM [inhibitor, single point] | – |
| O=C(NNc1ccc(C(F)(F)F)cc1[N+](=O)[O-])c1ccc(NS(=O)(=O)c2ccc(F)cc2)cc1 | inconclusive: 35.5 µM [cytotoxic, single point] | – |
| Cc1ccc(NC(=O)CC2SC(=O)N(c3ccccc3)C2=O)cc1 (configuration not stated) | – | inactive |
| CC(/C=C/c1ccccc1)=N\NC(=O)Cn1nc(C)cc1C | – | inconclusive: 7.07% |
| COc1ccc(/C=C2\C(=O)NCC(=O)N2Cc2ccccc2)cc1 | – | inconclusive: -30.6% |
| O=C(CSCc1ccccc1)Nc1ccc(F)c(F)c1 | – | inactive |
| O=c1c(O)cc(C2Oc3cc(O)cc(O)c3CC2O)cc2c(C3Oc4cc(O)cc(O)c4CC3O)cc(O)c(O)c12 (configuration not stated) | – | inactive |
| CCS(=O)(=O)N1CCC(C(=O)NCc2ccc(F)cc2Cl)CC1 | – | inconclusive: 48.6% |
| COc1ccc(S(=O)(=O)Nc2ccccc2C)cc1C(=O)N1CCOCC1 | – | inactive |
| N#C/C(=C\c1cccc(O)c1)C(=O)Nc1ccc2c(c1)OCCO2 | inconclusive: 35.5 µM [cytotoxic, single point] | – |
| C=CCn1c(SCC(=O)c2cccs2)nc2sc(CC)cc2c1=O | – | inconclusive: 6.96% |
| O=C(O)CCCN=C1NC2(CCCC2)Cc2ccccc21 | – | inactive |
| N#CC(C(=O)NC1CCCCC1)c1nc2ccccc2nc1N1CCN(c2ccccc2F)CC1 (configuration not stated) | inconclusive: 5.62 µM [falling, single point] | – |
| O=C(NC(NC(=S)Nc1ccccc1C(=O)O)C(Cl)(Cl)Cl)c1ccco1 (configuration not stated) | – | inactive |
| Clc1ccccc1-c1nnc(-c2ccccc2Cl)o1 | – | inactive |
| Nc1ccc2nc(CCCCCCc3nc4ccc(N)cc4[nH]3)[nH]c2c1 | – | inconclusive: 35.2% [at 46 µM] |
| O=C(CCS(=O)(=O)Cc1ccccc1)N1CCN(c2ccccc2)CC1 | – | inactive |

| SMILES | Potency | ratio change, negative = inhibition |
| --- | --- | --- |
| COc1ccc2cc(C(=O)c3ccccc3)c(=O)oc2c1 | – | inconclusive: 1.72% |
| c1ccc(-c2cn(-c3ccccc3)c3ncnc(N4CCN(c5ccccc5)CC4)c23)cc1 | – | inconclusive: -26.5% [at 46 µM] |
| C/C(CC(=O)NC(C)(C)C)=N\NC(N)=S | – | inconclusive: 83.5% [at 46 µM] |
| O=C(C1CCN(Cc2ccc(Cl)cc2)CC1)N1CCN(C(c2ccccc2)c2ccccc2)CC1 | – | inconclusive: -58.4% |
| COc1ccc(OC)c(NC(=O)CSC2=Nc3ccccc3C3=NC(CCC(=O)NCc4ccco4)C(=O)N23)c1 (configuration not stated) | – | inconclusive: -12.9% [at 46 µM] |
| CCn1c(SCC(=O)NCCc2ccccc2)nnc1-c1cccs1 | – | inactive |
| CC(C)=C1C2CCC1C(C(=O)Nc1cc(C)cc(C)c1)C2C(=O)O (configuration not stated) | – | inconclusive: -2.56% [at 46 µM] |
| CCC(Sc1nc2cc(OC)c(OC)cc2c(=O)n1Cc1ccc(Cl)cc1)C(=O)NCCOC (configuration not stated) | – | inactive |
| NS(=O)(=O)c1ccc(NC(=S)NCc2ccc3c(c2)OCO3)cc1 | – | inactive |
| Cc1ccc(C(=O)Nc2ccc(-n3c(C)nc4ccccc4c3=O)cc2)cc1[N+](=O)[O-] | inconclusive: 35.5 µM [falling, single point] | – |
| CCCc1cc(NC(=O)CCl)n(-c2ccccc2)n1 | inconclusive: 35.5 µM [rising, partial curve, poor fit] | – |
| COc1ccc(C(=O)CSc2nn3c(=O)c(C(C)(C)C)nnc3s2)cc1 | inconclusive: 11.2 µM [inhibitor, single point] | – |
| COc1ccc(-c2cc(CS(=O)(=O)c3ccccc3)on2)cc1 | – | inconclusive: 7.24% [at 46 µM] |
| COc1ccc(/C=N/NC(=O)CN2CCSCC2)c(OC)c1 | – | inactive |
| CC(C)(C)CC(=O)NCc1cccs1 | – | inconclusive: 35% [at 46 µM] |
| COc1ccc(C(=O)NCC(c2cccnc2)N2CCN(c3ccc(F)cc3)CC2)cc1 (configuration not stated) | inconclusive: 35.5 µM [cytotoxic, single point] | – |
| COc1cccc(OCc2nnc(-c3cccs3)o2)c1 | – | inconclusive: 25.7% [at 46 µM] |
| CCCCOc1cccc(C(=O)N(Cc2ccco2)C2CCS(=O)(=O)C2)c1 (configuration not stated) | – | inconclusive: -17.8% |
| Cc1ccc(-n2c(SCc3ccccc3F)nc3[nH]ncc3c2=O)cc1C | – | inconclusive: -35.8% [at 46 µM] |
| CCN(CC)S(=O)(=O)c1ccc(N2CCCCC2)c(C(=O)Nc2ccccc2N2CCOCC2)c1 | inconclusive: 7.08 µM [falling, partial curve] | – |
| CC(C)(C)NC(=O)NC(=O)COC(=O)Cc1c(Cl)cccc1Cl | – | inconclusive: 14.6% [at 9.22 µM] |

| SMILES | Potency | ratio change, negative = inhibition |
| --- | --- | --- |
| CCOC(=O)C1=C(C)N(CC(C)C)C(=O)C1 | – | inconclusive: 6.73% [at 46 µM] |
| N#C/C(=C\c1ccc(O)c(O)c1)C(=O)N1CCCC1 | – | inconclusive: -33% [at 46 µM] |
| O=C(COC(=O)c1cc(Cl)nc2ccccc12)c1ccc(Cl)cc1 | – | inconclusive: 2.55% |
| Cc1cccc(-c2nc3sc(C)cc3c(=O)o2)c1 | – | inconclusive: 15.6% [at 46 µM] |
| CCOC(=O)CSc1nc(-c2ccc(OC)cc2)ns1 | – | inactive |
| CCN1C(=C2C(=O)c3ccccc3C2=O)C=Cc2ccccc21 | – | inactive |
| CC(=O)Nc1c(O)nc(SCC(=O)Nc2ccc(C(C)=O)cc2)[nH]c1=O | – | inactive |
| CCCCn1c(-c2csc3c2CCCC3)n[nH]c1=S | – | inactive |
| CCN(CC)C(=O)Oc1ccc2c(=O)c(-c3ccccc3)coc2c1 | – | inconclusive: -35% |
| Cc1ccsc1/C=C1/SC(=O)N(CC(=O)N2CCOCC2)C1=O | – | inactive |
| CC1CCN(C(=O)N2c3ccccc3Sc3ccccc32)CC1 | – | inactive |
| Cc1[nH]c(C)c(Cl)c(=O)c1Cl | – | inconclusive: -5.03% |
| Cc1ccc(OCc2nnc(N)s2)cc1 | – | inconclusive: -18.8% [at 46 µM] |
| CCOC(=O)[C@H]1NN=C(C(=O)OC)[C@@H]1c1ccccc1 | – | inconclusive: -0.87% |
| CCN(c1ccccc1)S(=O)(=O)c1cc(C(=O)Nc2ccc(Br)cc2)ccc1F | – | inconclusive: -28% [at 46 µM] |
| CCN(CC)C(=O)Cn1c(SCC(=O)Nc2ccc(C)c(C)c2)nc2ccccc21 | – | inconclusive: 12.7% [at 46 µM] |
| Brc1ccc2nc(-c3ccncc3)c(NC3CCCC3)n2c1 | – | inconclusive: 0.443% [at 46 µM] |
| COc1ccc(-c2cnnc(N/N=C/c3c(C)nn(-c4ccccc4)c3Cl)n2)cc1 | – | inconclusive: -10.3% |
| COc1c(F)c(F)c(C(=O)Nc2ccccc2N2CCN(C(C)=O)CC2)c(F)c1F | – | inactive |

Random excerpt: four compounds from above, in no set order.

| SMILES | Potency | ratio change, negative = inhibition |
| --- | --- | --- |
| CCN(c1ccccc1)S(=O)(=O)c1cc(C(=O)Nc2ccc(Br)cc2)ccc1F | – | inconclusive: -28% [at 46 µM] |
| Cc1ccsc1/C=C1/SC(=O)N(CC(=O)N2CCOCC2)C1=O | – | inactive |
| Cc1[nH]c(C)c(Cl)c(=O)c1Cl | – | inconclusive: -5.03% |
| CCN(CC)C(=O)Cn1c(SCC(=O)Nc2ccc(C)c(C)c2)nc2ccccc21 | – | inconclusive: 12.7% [at 46 µM] |
